From paper PMC5652794 come the findings set out here.

Sequences of proteins named here, by UniProt entry; tags and fusion partners are left off.
UniProt Q9BYT3: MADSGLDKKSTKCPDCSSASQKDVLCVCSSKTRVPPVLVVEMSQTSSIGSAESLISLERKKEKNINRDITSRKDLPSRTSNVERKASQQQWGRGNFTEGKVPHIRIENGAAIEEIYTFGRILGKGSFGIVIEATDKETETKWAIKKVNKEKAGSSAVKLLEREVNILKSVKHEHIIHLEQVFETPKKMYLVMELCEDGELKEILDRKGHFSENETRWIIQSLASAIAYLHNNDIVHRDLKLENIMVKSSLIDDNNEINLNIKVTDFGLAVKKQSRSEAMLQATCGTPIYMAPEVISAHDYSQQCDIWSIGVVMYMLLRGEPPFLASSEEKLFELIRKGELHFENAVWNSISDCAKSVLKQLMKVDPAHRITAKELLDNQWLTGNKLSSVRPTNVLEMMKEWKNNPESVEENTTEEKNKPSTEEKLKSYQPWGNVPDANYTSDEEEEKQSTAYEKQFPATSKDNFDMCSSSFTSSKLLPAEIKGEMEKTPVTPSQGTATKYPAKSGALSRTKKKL
UniProt Q16665: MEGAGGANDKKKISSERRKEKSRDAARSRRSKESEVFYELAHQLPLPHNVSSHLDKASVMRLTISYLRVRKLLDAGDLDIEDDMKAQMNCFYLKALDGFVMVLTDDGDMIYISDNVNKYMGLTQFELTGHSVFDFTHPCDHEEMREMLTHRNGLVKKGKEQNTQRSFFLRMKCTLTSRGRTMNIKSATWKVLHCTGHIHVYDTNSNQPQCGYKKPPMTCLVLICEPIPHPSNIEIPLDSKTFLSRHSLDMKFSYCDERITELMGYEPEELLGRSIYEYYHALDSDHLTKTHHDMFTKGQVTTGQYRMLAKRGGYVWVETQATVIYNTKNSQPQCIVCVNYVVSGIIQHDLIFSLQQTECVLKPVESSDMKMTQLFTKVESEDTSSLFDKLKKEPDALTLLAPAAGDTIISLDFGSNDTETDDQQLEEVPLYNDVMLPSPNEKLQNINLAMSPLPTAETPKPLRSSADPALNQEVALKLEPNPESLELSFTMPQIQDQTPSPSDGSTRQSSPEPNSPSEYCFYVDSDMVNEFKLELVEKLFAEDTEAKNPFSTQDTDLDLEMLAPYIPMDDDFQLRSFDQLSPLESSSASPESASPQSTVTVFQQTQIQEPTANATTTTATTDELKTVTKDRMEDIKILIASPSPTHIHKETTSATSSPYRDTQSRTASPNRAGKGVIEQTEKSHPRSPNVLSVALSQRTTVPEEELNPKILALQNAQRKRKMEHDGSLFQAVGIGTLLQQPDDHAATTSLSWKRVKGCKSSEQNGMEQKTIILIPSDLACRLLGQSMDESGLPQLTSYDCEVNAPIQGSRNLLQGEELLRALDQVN

No constants are given. Whether binding was seen depends on the method and setting. Binding seen in cells or lysates may run through a third protein. Some binding calls cover weakened binding; strength is not graded here.

This assay deals with serine/threonine kinase STK33 (human (endogenous in HCT-116, MIA PaCa2, MDA-MB-231)) (UniProt Q9BYT3). Nature of the assay: co-IP; endogenous STK33 immunoprecipitated (3 μl STK33 antibody, Protein G-Sepharose) from 1 mg whole cell extract (10 mM Tris-HCl, 5 mM EDTA, 50 mM NaCl, 50 mM NaF, 1% Triton X100) of HCT-116, MIA PaCa2 and MDA-MB-231 cells cultivated in low oxygen or normal atmosphere; western blot.

With “hypoxia-inducing factor 1α (HIF-1α) (from UniProt Q16665 1-826)”, the binding result was “binds”.
